From PubChem BioAssay AID504444 (National Center for Advancing Translational Sciences (NCATS), 2011)
Hit rate of the full screen: of about 360,000 compounds, about 7,500 (2.1%) were called active. Inconclusive results, whose numbers are uncertain, are shown with a selection of clear calls. Calls come from the whole dose curve; as a rule, active = well fitted inhibition curve with a large enough effect; inconclusive = small, poorly fitted or top-dose-only effect, or effect the other way; inactive = flat fitted curve, though single readings scatter. A potency beside an inconclusive call is a rough fit, not a confirmed value.

test: Nrf2 qHTS screen for inhibitors; settings: A549 ARE-Fluc reporter, luciferase luminescence, 18-24 h; activity change, negative = inhibition: at 46 µM (top of the series); note: nearly all actives have a fitted effect of over 60% in size
How it was run: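 In this cell-based qHTS, ARE-driven firefly luciferase in A549 cells reports Nrf2 activity; the luminescent signal after BugLite lysis is the measured value, with a prior CellTiter-Fluor read for cell health.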
% is set by controls: 0 for no effect and ±100 for the full control effect; potency is the fitted concentration of half-maximal effect.

Structure (SMILES)	Potency	activity change, negative = inhibition
Cc1cccn2c(=O)c(C=C(C#N)C#N)c(N3CCN(c4cccc(Cl)c4)CC3)nc12	inconclusive: 18.4 µM [falling, single point]	–
CCOC(=O)N1CCN(S(=O)(=O)c2ccc(OCC)cc2)CC1	–	inactive: -25.3%
CCCCNc1c(-c2ccc(OC)c(SC(C)CC)c2)nc2cc(C)ccn12 (stereo not given)	inconclusive: 29.1 µM [falling, single point]	–
Cc1ccc(Cl)cc1NC(=O)c1ccccc1OCC(=O)Nc1ccc(Cl)cc1	inconclusive: 20.6 µM [falling, single point]	–
O=C1CCC/C(=N/NC(=O)c2sc3ccccc3c2Cl)C1	inconclusive: 5.8 µM [activator, single point]	–
Cc1cc(C)n2nc(SCc3nnc(SCc4ccccc4C)s3)nc2n1	inconclusive: 16.4 µM [falling, partial curve, poor fit]	–
COCCCNC(=S)N1CCCN(c2nc3cc(C)c(C)cc3cc2C#N)CC1	inconclusive: 20.6 µM [falling, single point]	–
Cc1c(C(=O)Nc2ccc(Cc3ccncc3)cc2)cccc1[N+](=O)[O-]	inconclusive: 20.6 µM [falling, single point]	–
CC(=O)Nc1ccc(NC(=O)c2sc3nc4c(c(-c5ccc(C)cc5)c3c2N)CCC4)cc1	inconclusive: 9.2 µM [falling, partial curve, poor fit]	–
OC1CCN(c2c3c(nc4cc(-c5cccc(F)c5)nn24)CCCC3)CC1	active: 23.1 µM	–
Fc1ccc2nc(N3CCCCC3)sc2c1	inconclusive: 9.2 µM [activator, partial curve]	–
COc1ccc(N2CCN(C(=O)CSc3nc4[nH]ncc4c(=O)n3-c3cccc4ccccc34)CC2)cc1	inconclusive: 14.6 µM [falling, partial curve]	–
COc1ccc(OC(=O)N2C/C(=C/c3ccccc3)C(=O)/C(=C\c3ccccc3)C2)cc1	–	inactive: -4.92%
COc1cccc(CNC(=O)C2CCCN(S(=O)(=O)N(C)c3ccc(F)cc3)C2)c1OC (stereo not given)	active: 25.9 µM	–
CN1CCN(c2nc(-c3ccc(Br)cc3)nnc2-c2ccccc2)CC1	inconclusive: 20.6 µM [activator, single point]	–
O=C1CCC(C(=O)OCC(=O)N2N=C3/C(=C/c4ccccc4)CCCC3C2c2ccccc2)N1 (stereo not given)	inconclusive: 23.1 µM [falling, single point]	–
CCCCN(C(=O)c1ccc([N+](=O)[O-])s1)c1c(N)n(CCCC)c(=O)[nH]c1=O	inconclusive: 18.4 µM [falling, single point]	–
CCc1ccc(S(=O)(=O)c2cn(Cc3ccccc3)c3cc(N4CCCC4)c(F)cc3c2=O)cc1	–	inactive: 6.2%
Clc1ccc2c(c1)-n1cc(-c3ccccc3)nc1CO2	inconclusive: 18.4 µM [activator, partial curve]	–
COc1ccc(NC(=S)N2C3CCC2CC(NC(=O)NC24CC5CC(CC(C5)C2)C4)C3)c(OC)c1 (stereo not given)	–	inactive: -2.08%

Sorted by SMILES length (rising): 3 of the compounds above.
Structure (SMILES)	Potency	activity change, negative = inhibition
CCCCNc1c(-c2ccc(OC)c(SC(C)CC)c2)nc2cc(C)ccn12 (stereo not given)	inconclusive: 29.1 µM [falling, single point]	–
Cc1c(C(=O)Nc2ccc(Cc3ccncc3)cc2)cccc1[N+](=O)[O-]	inconclusive: 20.6 µM [falling, single point]	–
COc1ccc(N2CCN(C(=O)CSc3nc4[nH]ncc4c(=O)n3-c3cccc4ccccc34)CC2)cc1	inconclusive: 14.6 µM [falling, partial curve]	–

(list continues)

Structure (SMILES)	Potency	activity change, negative = inhibition
O=C(N/N=C/c1ccc(N2CCOCC2)s1)c1ccccc1Cl	inconclusive: 3.66 µM [activator, full curve]	–
CCc1ccc(C(=O)COC(=O)c2ccc(-c3nnc(-c4ccccc4)o3)cc2)cc1	inconclusive: 0.326 µM [activator, full curve, poor fit]	–
CCc1[nH]nc(C(=O)N2CCCC(C(=O)c3cccc(C(F)(F)F)c3)C2)c1C (stereo not given)	inconclusive: 29.1 µM [falling, single point]	–
COc1ccc(NC(=O)CSc2oc(-c3cccs3)nc2S(=O)(=O)c2ccccc2)c(OC)c1	–	inactive: -12% [at 9.27 µM]
CCN1CCN(CC(=O)N2N=C(c3cccs3)CC2c2ccc(OC)c(OC)c2)C(=O)C1=O (stereo not given)	–	inactive: -17.4%
CCn1c2ccccc2c2cc(NC(=O)c3cccc(OC)c3OC)ccc21	inconclusive: 1.16 µM [falling, partial curve, poor fit]	–
O=C(CN(C(=O)c1csnn1)c1cccc2ccccc12)NC1CCCC1	inconclusive: 6.51 µM [falling, full curve, poor fit]	–
Nc1nonc1-n1nnc(C(=O)N/N=C/C=C/c2ccccc2)c1CSC1=NCCS1	inconclusive: 23.1 µM [falling, partial curve]	–
C[C@@H]1CN([C@@H](C)CO)C(=O)c2cccc(NC(=O)Nc3ccc(F)cc3)c2O[C@@H]1CN(C)Cc1ccc(Oc2ccccc2)cc1	inconclusive: 18.4 µM [falling, single point]	–
Oc1ccc(C(c2nnnn2CCc2ccccc2)N2CCN(c3nc4ccccc4s3)CC2)cc1 (stereo not given)	inconclusive: 18.4 µM [falling, single point]	–
CCC(C)NC(=O)c1ccccc1NC(=O)C1COc2ccccc2O1 (stereo not given)	inconclusive: 25.9 µM [falling, partial curve]	–
COc1ccc(C(=O)c2cn(Cc3ccccc3F)c3cc4c(cc3c2=O)OCCO4)cc1OC	–	inactive: 17.9%
O=C(CN1CCCCC1)N/N=C/c1cc2ccccc2nc1Cl	inconclusive: 14.6 µM [activator, partial curve, poor fit]	–
C/C(=N\NC(=O)c1cccs1)C(C)(C)C	inconclusive: 25.9 µM [activator, single point]	–
CCOc1ccccc1N1CCN(S(=O)(=O)c2cccc3nsnc23)CC1	inconclusive: 29.1 µM [falling, single point]	–
CC12C=CC(=O)C=C1CCC1C2C(=O)CC2(C)C1CCC2(O)C(=O)CO (stereo not given)	active: 0.291 µM	–
CC1CN(C(=O)c2cccc(S(=O)(=O)N3CCN(c4ccc(F)cc4)CC3)c2)CC(C)O1 (stereo not given)	inconclusive: 20.6 µM [falling, single point]	–
COc1cc(Br)c(C2C(C#N)=C(N)Oc3n[nH]c(-c4cccnc4)c32)cc1OC (stereo not given)	–	inactive: -30.6%
Cc1ccc(NC(=O)C2CC(=O)N(c3ccc4c(c3)OCCO4)C2)cc1S(=O)(=O)N1CCCCCC1 (stereo not given)	active: 5.8 µM	–
CN(C)c1ccc(P(=O)(CC(=O)N/N=C/c2ccc(C#N)cc2)OCCCl)cc1 (stereo not given)	inconclusive: 18.4 µM [falling, single point]	–
